Measured data: PubChem BioAssay AID1259308 (NCATS, 2017)
Screen: 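Candidate targets for better recombinant protein yield in mammalian cells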 (primary screen). System: human HEK293 embryonic kidney cells stably expressing firefly luciferase (HEK-CMV-Luc2-Hygro). Reagent: single siRNA against human genes, 0.8 pmol siRNA per well. Timing: 72 h. Read-out: 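Luciferase light (ONE-Glo) measured on one replicate plate set and viability (CellTiter-Glo) on the other, scaled to a negative control siRNA, with robust z-scores and luciferase per cell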. Reading the numbers: total luciferase, z-score and total luciferase, % of control: higher = more reporter protein produced; luciferase per cell, z-score: higher = more reporter output per viable cell; viable cells, % of control: higher = more viable cells. Call rule: 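Active when the median/MAD z-score for overall luciferase is greater than 3; a gene was taken forward for validation with new siRNAs if at least two of its three siRNAs passed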. Calls: active = raised luciferase; inactive = no rise.
In all, the deposit lists about 59,000 reagents; this is a part drawn at random. In the full data, about 1,510 (2.6%) were called active. 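Calls use total luciferase alone and ignore viability, so some active siRNAs may act by altering cell number.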 Unmarked entries are inactive. Reagents against one gene are numbered here. No sequences are given here.

| target | reagent no. | total luciferase, z-score | total luciferase, % of control | luciferase per cell, z-score | viable cells, % of control |
| --- | --- | --- | --- | --- | --- |
| PCSK6 (proprotein convertase subtilisin/kexin type 6) | 1 | -0.274 | 76.4 | -0.46 | 96.4 |
| PCSK6 (proprotein convertase subtilisin/kexin type 6) | 2 | 1.05 | 103 | 1.07 | 86.6 |
| PCSK6 (proprotein convertase subtilisin/kexin type 6) | 3 | 0.834 | 98.5 | 0.534 | 95.6 |
| LRRC4C (leucine rich repeat containing 4C) | 1 | -1.92 | 43.8 | -2.42 | 92.5 |
| LRRC4C (leucine rich repeat containing 4C) | 2 | 0.142 | 84.7 | -0.00189 | 94.7 |
| LRRC4C (leucine rich repeat containing 4C) | 3 | -0.529 | 71.4 | -1.52 | 119 |
| CLPSL1 (colipase like 1) | 1 | 2.32 | 128 | 0.815 | 115 |
| CLPSL1 (colipase like 1) | 2 | -1.41 | 53.9 | -0.4 | 66.9 |
| CLPSL1 (colipase like 1) | 3 | -0.759 | 66.8 | -0.624 | 88 |
| LIPE (lipase E, hormone sensitive type) | 1 | -1.04 | 61.1 | -0.369 | 75.3 |
| LIPE (lipase E, hormone sensitive type) | 2 | 1.32 | 108 | 1.13 | 89.8 |
| LIPE (lipase E, hormone sensitive type) | 3 | 3.17 (active) | 145 | 2.71 | 79.3 |
| KLHDC7B (kelch domain containing 7B) | 1 | 0.111 | 84.1 | 0.103 | 91.5 |
| KLHDC7B (kelch domain containing 7B) | 2 | -0.000852 | 81.9 | -0.361 | 101 |
| KLHDC7B (kelch domain containing 7B) | 3 | -0.0647 | 80.6 | -0.253 | 96.3 |
| GNMT (glycine N-methyltransferase) | 1 | -0.204 | 77.8 | -0.179 | 91.2 |
| GNMT (glycine N-methyltransferase) | 2 | 0.0169 | 82.2 | -0.54 | 106 |
| GNMT (glycine N-methyltransferase) | 3 | -1.46 | 52.8 | -1.26 | 82.3 |
| NEXMIF (neurite extension and migration factor) | 1 | 0.299 | 87.8 | 1.02 | 75.1 |
| NEXMIF (neurite extension and migration factor) | 2 | -0.547 | 71 | 0.0802 | 77.7 |
| NEXMIF (neurite extension and migration factor) | 3 | 0.464 | 91.1 | 0.0549 | 100 |
| BIN3 (bridging integrator 3) | 1 | 1.02 | 102 | 1.38 | 79.4 |
| BIN3 (bridging integrator 3) | 2 | 1.58 | 113 | 1.17 | 93 |
| BIN3 (bridging integrator 3) | 3 | -1.41 | 53.8 | -1.81 | 96.9 |
| CENPP (centromere protein P) | 1 | -0.297 | 76 | -0.0406 | 85.8 |
| CENPP (centromere protein P) | 2 | 0.275 | 87.4 | 0.494 | 85.7 |
| CENPP (centromere protein P) | 3 | 1.7 | 116 | 1.7 | 82.7 |
| PIK3AP1 (phosphoinositide-3-kinase adaptor protein 1) | 1 | 0.48 | 91.4 | 2.44 | 53.7 |
| PIK3AP1 (phosphoinositide-3-kinase adaptor protein 1) | 2 | 0.216 | 86.2 | 1.12 | 71.8 |
| PIK3AP1 (phosphoinositide-3-kinase adaptor protein 1) | 3 | 0.192 | 85.7 | -0.21 | 101 |
| ZBTB8A (zinc finger and BTB domain containing 8A) | 1 | 0.208 | 86 | 0.277 | 89.4 |
| ZBTB8A (zinc finger and BTB domain containing 8A) | 2 | 0.776 | 97.3 | 0.162 | 104 |
| ZBTB8A (zinc finger and BTB domain containing 8A) | 3 | 0.595 | 93.7 | -0.344 | 115 |
| RUFY4 (RUN and FYVE domain containing 4) | 1 | 1.19 | 106 | 1.56 | 78.3 |
| RUFY4 (RUN and FYVE domain containing 4) | 2 | -0.0934 | 80 | -0.495 | 102 |
| RUFY4 (RUN and FYVE domain containing 4) | 3 | -0.555 | 70.8 | -0.0524 | 80.3 |
| CCNE2 (cyclin E2) | 1 | -0.14 | 79.1 | -0.617 | 104 |
| CCNE2 (cyclin E2) | 2 | 0.856 | 98.9 | 0.657 | 93 |
| CCNE2 (cyclin E2) | 3 | -0.175 | 78.4 | -0.305 | 94.9 |
| SCN8A (sodium voltage-gated channel alpha subunit 8) | 1 | -0.822 | 65.5 | -0.827 | 91.1 |
| SCN8A (sodium voltage-gated channel alpha subunit 8) | 2 | 0.391 | 89.7 | -0.0435 | 101 |
| SCN8A (sodium voltage-gated channel alpha subunit 8) | 3 | 0.609 | 94 | 0.545 | 91 |
| ROCK2 (Rho associated coiled-coil containing protein kinase 2) | 1 | 0.283 | 87.5 | 0.238 | 91.8 |
| ROCK2 (Rho associated coiled-coil containing protein kinase 2) | 2 | -0.0306 | 81.3 | 0.283 | 84.3 |
| ROCK2 (Rho associated coiled-coil containing protein kinase 2) | 3 | -0.804 | 65.9 | -1.06 | 97.3 |
| RHEB (Ras homolog, mTORC1 binding) | 1 | -0.51 | 71.7 | -0.94 | 103 |
| RHEB (Ras homolog, mTORC1 binding) | 2 | -0.0751 | 80.4 | -0.195 | 94.6 |
| RHEB (Ras homolog, mTORC1 binding) | 3 | -0.766 | 66.7 | -1.01 | 97.2 |
| TSG101 (tumor susceptibility 101) | 1 | 0.219 | 86.2 | 0.371 | 87.4 |
| TSG101 (tumor susceptibility 101) | 2 | 0.976 | 101 | 1.16 | 83.3 |
| TSG101 (tumor susceptibility 101) | 3 | -0.0122 | 81.6 | 0.00567 | 91.1 |
| C6orf47 (chromosome 6 open reading frame 47) | 1 | 0.622 | 94.3 | 0.468 | 93.1 |
| C6orf47 (chromosome 6 open reading frame 47) | 2 | -1.95 | 43 | -1.07 | 63.7 |
| C6orf47 (chromosome 6 open reading frame 47) | 3 | 0.573 | 93.3 | 1.61 | 68.3 |
| GSAP (gamma-secretase activating protein) | 1 | -0.918 | 63.6 | -1.16 | 96.5 |
| GSAP (gamma-secretase activating protein) | 2 | 0.859 | 99 | 0.316 | 102 |
| GSAP (gamma-secretase activating protein) | 3 | 2.15 | 125 | 1.43 | 95.5 |

Copied from the list:
SCN8A (sodium voltage-gated channel alpha subunit 8) #1, total luciferase, % of control: 65.5
Entry of CCNE2 (cyclin E2) #1 in “total luciferase, % of control”: 79.1
BIN3 (bridging integrator 3) #3, luciferase per cell, z-score → -1.81
Result of KLHDC7B (kelch domain containing 7B) #2 under “total luciferase, z-score”: -0.000852
Under “total luciferase, % of control”, ZBTB8A (zinc finger and BTB domain containing 8A) #2 shows 97.3
Under “luciferase per cell, z-score”, CENPP (centromere protein P) #1 is entered as -0.0406
